The list is a part of this screen's results and no random one: it gathers tests that were run many times, whatever their T/C, doses with no T/C, and many T/C values between a quarter and a half above the control. Other doses and runs of a compound stand elsewhere. T/C gives the treated animals as a percentage of the vehicle group. Some entries give survivors of the animals treated and no T/C: the source files T/C as zero there, which appears to mark a toxic dose or a test without result, not a measured value. Some survivor counts are full or nearly so, which does not show that the dose was tolerated: the source hardly ever lists a survival T/C far under the control, and the zero likely stands for such cases as well. Counts of survivors are from the toxicity check (mostly the fifth day) where no day follows; animals may have died later. Schedules are NCI's codes, read here as Q, the interval in days (D) or hours (H), X, the number of doses. Counts like (3×) stand for listed records that agree. For survival time, the PubChem record calls one and a half times the control and up active, and a quarter to a half above the control has no call in these data; cut-offs in other NCI protocols can differ. Some entries hold several experiments; the values are given in rising order. Some T/C values carry the count of animals alive at the toxicity check (mostly the fifth day); where none is given, no animal had died by that day.
System: L1210 leukemia ip in BDF1 mice, survival T/C
Assay: NCI In Vivo Anticancer Drug Screen. Data for tumor model L1210 Leukemia (intraperitoneal) in B6D2F1 (BDF1) mice
Conditions: higher T/C = longer survival
[1] = T/C endpoint: mean survival time, dose: 400.0 mg/kg/injection, schedule: Q01DX001 (ip), vehicle: saline
[2] = T/C endpoint: mean survival time, dose: 100.0 mg/kg/injection, schedule: Q04DX003 (ip), vehicle: Klucel (hydroxypropylcellulose) (HPC)
[3] = T/C endpoint: mean survival time, dose: 200.0 mg/kg/injection, schedule: Q04DX003 (ip), vehicle: Klucel (hydroxypropylcellulose) (HPC)
[4] = T/C endpoint: mean survival time, dose: 400.0 mg/kg/injection, schedule: Q04DX003 (ip), vehicle: Klucel (hydroxypropylcellulose) (HPC)
[5] = T/C endpoint: mean survival time, dose: 100.0 mg/kg/injection, schedule: Q01DX001 (ip), vehicle: carboxymethylcellulose (CMC)
[6] = T/C endpoint: mean survival time, dose: 200.0 mg/kg/injection, schedule: Q01DX001 (ip), vehicle: carboxymethylcellulose (CMC)
[7] = T/C endpoint: mean survival time, dose: 400.0 mg/kg/injection, schedule: Q01DX001 (ip), vehicle: carboxymethylcellulose (CMC)
[8] = T/C endpoint: mean survival time, dose: 400.0 mg/kg/injection, schedule: Q01DX009 (ip), vehicle: saline with Tween-80
[9] = T/C endpoint: mean survival time, dose: 400.0 mg/kg/injection, schedule: Q01DX009 (ip), vehicle: Klucel (hydroxypropylcellulose) (HPC)

## O=C(CCCCC(=O)Nc1ccc(C2=NCCN2)cc1)Nc1ccc(C2=NCCN2)cc1
T/C endpoint: mean survival time, dose: 22.0 mg/kg/injection, schedule: Q01DX009 (ip), vehicle: saline
  T/C: 131 % of control
T/C endpoint: mean survival time, dose: 45.0 mg/kg/injection, schedule: Q01DX009 (ip), vehicle: saline
  T/C: 137 % of control
T/C endpoint: mean survival time, dose: 177.0 mg/kg/injection, schedule: Q01DX001 (ip), vehicle: saline
  T/C: 140 % of control
T/C endpoint: mean survival time, dose: 265.0 mg/kg/injection, schedule: Q01DX001 (ip), vehicle: saline
  T/C: 125 % of control
[1]
  T/C: 135 % of control
T/C endpoint: mean survival time, dose: 400.0 mg/kg/injection, schedule: Q01DX009 (ip), vehicle: saline
  survivor count: 5 of 6
T/C endpoint: mean survival time, dose: 600.0 mg/kg/injection, schedule: Q01DX001 (ip), vehicle: saline
  T/C: 128 % of control
T/C endpoint: mean survival time, dose: 600.0 mg/kg/injection, schedule: Q01DX009 (ip), vehicle: saline
  survivor count: 2 of 6

## OCC1CC2CC(O)C1C2 (stereo unspecified)
T/C endpoint: mean survival time, dose: 150.0 mg/kg/injection, schedule: Q01DX001 (ip), vehicle: saline
  survivor count: 0 of 6
T/C endpoint: mean survival time, dose: 300.0 mg/kg/injection, schedule: Q01DX001 (ip), vehicle: saline
  survivor count: 0 of 6 (2×)

## CCN(CC)CCOC(=O)c1ccccc1Nc1cccc(C)c1
T/C endpoint: mean survival time, dose: 200.0 mg/kg/injection, schedule: Q04DX003 (ip), vehicle: saline
  survivor count: 2 of 6

## CCC(C)C1NC(=O)C(NC(=O)c2c3nc4c(C(=O)NC5C(=O)NC(C(C)CC)C(=O)N6CCCC6C(=O)N(C)CC(=O)N(C)C(C(C)C)C(=O)OC5C)ccc(C)c4oc-3c(C)c(=O)c2N)C(C)OC(=O)C(C(C)C)N(C)C(=O)CN(C)C(=O)C2CCCN2C1=O (stereo unspecified)
T/C endpoint: mean survival time, dose: 0.05 mg/kg/injection, schedule: Q01DX009 (ip), vehicle: saline
  T/C: 142 % of control
T/C endpoint: mean survival time, dose: 0.2 mg/kg/injection, schedule: Q01DX009 (ip), vehicle: saline
  T/C: 125 % of control
T/C endpoint: mean survival time, dose: 5.0 micrograms/kg/injection, schedule: Q01DX009 (ip), vehicle: saline
  T/C: 144 % of control [5 of 6 alive]
T/C endpoint: mean survival time, dose: 20.0 micrograms/kg/injection, schedule: Q01DX009 (ip), vehicle: saline
  T/C: 127 % of control
T/C endpoint: mean survival time, dose: 25.0 micrograms/kg/injection, schedule: Q01DX009 (ip), vehicle: saline
  T/C: 142 % of control
T/C endpoint: mean survival time, dose: 40.0 micrograms/kg/injection, schedule: Q01DX009 (ip), vehicle: acetone
  T/C: 138 % of control
T/C endpoint: mean survival time, dose: 40.0 micrograms/kg/injection, schedule: Q01DX009 (ip), vehicle: saline
  T/C: 130 % of control
T/C endpoint: mean survival time, dose: 400.0 micrograms/kg/injection, schedule: Q01DX001 (ip), vehicle: saline
  T/C: 130 % of control
T/C endpoint: median survival time, dose: 50.0 micrograms/kg/injection, schedule: Q01DX009 (ip), vehicle: water
  T/C: 134 % of control
T/C endpoint: median survival time, dose: 100.0 micrograms/kg/injection, schedule: Q01DX009 (ip), vehicle: water
  T/C: 140 % of control
T/C endpoint: median survival time, dose: 150.0 micrograms/kg/injection, schedule: Q04DX003 (ip), vehicle: water
  T/C: 125 % of control
T/C endpoint: median survival time, dose: 300.0 micrograms/kg/injection, schedule: Q04DX003 (ip), vehicle: water
  T/C: 136 % of control
T/C endpoint: median survival time, dose: 400.0 micrograms/kg/injection, schedule: Q01DX001 (ip), vehicle: water
  T/C: 126 % of control
T/C endpoint: median survival time, dose: 800.0 micrograms/kg/injection, schedule: Q01DX001 (ip), vehicle: water
  T/C: 140 % of control
T/C endpoint: median survival time, dose: 1600.0 micrograms/kg/injection, schedule: Q01DX001 (ip), vehicle: water
  T/C: 140 % of control

## CCOC1=C(Cl)C(=O)C(OCC)=C(Cl)C1=O
T/C endpoint: mean survival time, dose: 18.0 mg/kg/injection, schedule: Q04DX003 (ip), vehicle: DMSO
  survivor count: 2 of 6
T/C endpoint: mean survival time, dose: 37.0 mg/kg/injection, schedule: Q04DX003 (ip), vehicle: DMSO
  survivor count: 0 of 6
T/C endpoint: mean survival time, dose: 75.0 mg/kg/injection, schedule: Q04DX003 (ip), vehicle: DMSO
  survivor count: 0 of 6
T/C endpoint: mean survival time, dose: 150.0 mg/kg/injection, schedule: Q04DX003 (ip), vehicle: DMSO
  survivor count: 0 of 6
T/C endpoint: mean survival time, dose: 300.0 mg/kg/injection, schedule: Q01DX001 (ip), vehicle: alcohol
  survivor count: 2 of 6
T/C endpoint: mean survival time, dose: 300.0 mg/kg/injection, schedule: Q04DX003 (ip), vehicle: DMSO
  survivor count: 0 of 6

## C=CC[n+]1ccccc1/C=C/c1ccc(OC)c(OC)c1
T/C endpoint: mean survival time, dose: 25.0 mg/kg/injection, schedule: Q04DX003 (ip), vehicle: Klucel (hydroxypropylcellulose) (HPC)
  survivor count: 5 of 6
T/C endpoint: mean survival time, dose: 50.0 mg/kg/injection, schedule: Q04DX003 (ip), vehicle: Klucel (hydroxypropylcellulose) (HPC)
  survivor count: 0 of 6
[2]
  survivor count: 6 of 6
[3]
  survivor count: 0 of 6
[4]
  survivor count: 0 of 6

## CCOc1cc(C=Nc2cc(Br)c(OC)c(Br)c2)ccc1N(CCCl)CCCl
T/C endpoint: mean survival time, dose: 17.0 mg/kg/injection, schedule: Q01DX009 (ip), vehicle: carboxymethylcellulose (CMC)
  T/C: 139 % of control
T/C endpoint: mean survival time, dose: 26.0 mg/kg/injection, schedule: Q01DX009 (ip), vehicle: carboxymethylcellulose (CMC)
  survivor count: 6 of 6
T/C endpoint: mean survival time, dose: 40.0 mg/kg/injection, schedule: Q01DX009 (ip), vehicle: carboxymethylcellulose (CMC)
  survivor count: 4 of 6
T/C endpoint: mean survival time, dose: 60.0 mg/kg/injection, schedule: Q01DX009 (ip), vehicle: carboxymethylcellulose (CMC)
  survivor count: 5 of 6
T/C endpoint: mean survival time, dose: 89.0 mg/kg/injection, schedule: Q01DX009 (ip), vehicle: carboxymethylcellulose (CMC)
  survivor count: 3 of 6
[5]
  T/C: 128 % of control
T/C endpoint: mean survival time, dose: 133.0 mg/kg/injection, schedule: Q01DX009 (ip), vehicle: carboxymethylcellulose (CMC)
  survivor count: 2 of 6
[6]
  T/C: 128 and 130 % of control
T/C endpoint: mean survival time, dose: 200.0 mg/kg/injection, schedule: Q01DX009 (ip), vehicle: carboxymethylcellulose (CMC)
  survivor count: 0 of 6
T/C endpoint: mean survival time, dose: 300.0 mg/kg/injection, schedule: Q01DX001 (ip), vehicle: carboxymethylcellulose (CMC)
  T/C: 139 % of control
T/C endpoint: mean survival time, dose: 300.0 mg/kg/injection, schedule: Q01DX009 (ip), vehicle: carboxymethylcellulose (CMC)
  survivor count: 0 of 6
[7]
  survivor count: 2 of 4

## CN1CCN(C(=O)Nc2cccc(F)c2)CC1
T/C endpoint: mean survival time, dose: 200.0 mg/kg/injection, schedule: Q01DX009 (ip), vehicle: saline with Tween-80
  survivor count: 6 of 6
[8]
  survivor count: 0 of 6

## CCC(C)N=C(N)C(N)=NC(C)CC (stereo unspecified)
T/C endpoint: mean survival time, dose: 400.0 mg/kg/injection, schedule: Q04DX002 (ip), vehicle: saline
  survivor count: 1 of 3

## CC(C)CN(C)N=Nc1ccc(C(=N)N)cc1
[6]
  survivor count: 1 of 6
[7]
  survivor count: 0 of 6

## CNC(=S)N/N=C/C(=N\NC(=S)NC)C(O)C(O)C(O)C(O)CO (stereo unspecified)
[1]
  survivor count: 6 of 6

## Nc1nc(N)nc(CCCCc2nc(N)nc(N)n2)n1
T/C endpoint: mean survival time, dose: 50.0 mg/kg/injection, schedule: Q01DX001 (ip), vehicle: carboxymethylcellulose (CMC)
  survivor count: 4 of 4
[5]
  survivor count: 4 of 4
[7]
  survivor count: 4 of 4

## C[n+]1ccccc1/C=N/Nc1ccccc1
T/C endpoint: mean survival time, dose: 150.0 mg/kg/injection, schedule: Q01DX001 (ip), vehicle: other
  survivor count: 2 of 6
T/C endpoint: mean survival time, dose: 300.0 mg/kg/injection, schedule: Q01DX001 (ip), vehicle: other
  survivor count: 1 of 6

## O=S(=O)(c1cc(Cl)c(O)c(Cl)c1)c1cc(Cl)c(O)c(Cl)c1
T/C endpoint: mean survival time, dose: 200.0 mg/kg/injection, schedule: Q01DX009 (ip), vehicle: Klucel (hydroxypropylcellulose) (HPC)
  survivor count: 0 of 6
[9]
  survivor count: 0 of 6

## C/C=C/C(=O)Nc1ccccc1F
[9]
  survivor count: 3 of 6

## O=[N+]([O-])c1ccc(C(F)(F)F)cc1
T/C endpoint: mean survival time, dose: 200.0 mg/kg/injection, schedule: Q01DX009 (ip), vehicle: other
  survivor count: 4 of 6

## CCOC(=O)CNC(=O)Nc1ccc(C(=O)OCC)cc1
[8]
  survivor count: 6 of 6

## CS(=O)(=O)OCCN(CCOS(C)(=O)=O)c1ccc(C=Nc2ccc(C(=O)O)cc2)cc1
T/C endpoint: mean survival time, dose: 5.0 mg/kg/injection, schedule: Q04DX003 (ip), vehicle: Klucel (hydroxypropylcellulose) (HPC)
  T/C: 127 % of control
T/C endpoint: mean survival time, dose: 10.0 mg/kg/injection, schedule: Q04DX003 (ip), vehicle: Klucel (hydroxypropylcellulose) (HPC)
  T/C: 130 % of control
T/C endpoint: mean survival time, dose: 80.0 mg/kg/injection, schedule: Q04DX003 (ip), vehicle: Klucel (hydroxypropylcellulose) (HPC)
  survivor count: 6 of 6
[2]
  survivor count: 5 of 6
[3]
  survivor count: 4 of 6
[4]
  survivor count: 4 of 6

From PubChem BioAssay AID248 (DTP/NCI, 2004)
